Measured data: PubChem BioAssay AID1259308 (NCATS, 2017)
Purpose: 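Candidate targets for better recombinant protein yield in mammalian cells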 (primary screen). Cells: human HEK293 embryonic kidney cells stably expressing firefly luciferase (HEK-CMV-Luc2-Hygro). Reagent: single siRNA against human genes, 0.8 pmol siRNA per well. Timing: 72 h. Measured: 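Luciferase light (ONE-Glo) measured on one replicate plate set and viability (CellTiter-Glo) on the other, scaled to a negative control siRNA, with robust z-scores and luciferase per cell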. Direction: total luciferase, z-score and total luciferase, % of control: higher = more reporter protein produced. Active means: 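Active when the median/MAD z-score for overall luciferase is greater than 3; a gene was taken forward for validation with new siRNAs if at least two of its three siRNAs passed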. Calls: active = raised luciferase; inactive = no rise.
Here is an unselected part of about 59,000 deposited reagents. Of all reagents, about 1,510 (2.6%) are marked active. 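Calls use total luciferase alone and ignore viability, so some active siRNAs may act by altering cell number.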 The numbers tell different reagents against one gene apart. Further read-outs or replicates are left out here.

SIMC1 (GeneID 375484) #1 | total luciferase, z-score: 0.961; total luciferase, % of control: 101; Outcome: inactive
SIMC1 (GeneID 375484) #2 | total luciferase, z-score: -0.0882; total luciferase, % of control: 80.1; Outcome: inactive
SIMC1 (GeneID 375484) #3 | total luciferase, z-score: 0.0583; total luciferase, % of control: 83; Outcome: inactive
CDRT15 (GeneID 146822) #1 | total luciferase, z-score: 0.538; total luciferase, % of control: 92.6; Outcome: inactive
CDRT15 (GeneID 146822) #2 | total luciferase, z-score: -1.41; total luciferase, % of control: 53.9; Outcome: inactive
CDRT15 (GeneID 146822) #3 | total luciferase, z-score: 1.62; total luciferase, % of control: 114; Outcome: inactive
TRIM14 (GeneID 9830) #1 | total luciferase, z-score: 3.42; total luciferase, % of control: 150; Outcome: active
TRIM14 (GeneID 9830) #2 | total luciferase, z-score: 0.133; total luciferase, % of control: 84.5; Outcome: inactive
TRIM14 (GeneID 9830) #3 | total luciferase, z-score: -0.0632; total luciferase, % of control: 80.6; Outcome: inactive
PHF7 (GeneID 51533) #1 | total luciferase, z-score: -1.26; total luciferase, % of control: 56.8; Outcome: inactive
PHF7 (GeneID 51533) #2 | total luciferase, z-score: -0.411; total luciferase, % of control: 73.7; Outcome: inactive
PHF7 (GeneID 51533) #3 | total luciferase, z-score: 0.715; total luciferase, % of control: 96.1; Outcome: inactive

2 neighbouring records already listed:
CDRT15 (GeneID 146822) #3 | total luciferase, z-score: 1.62; total luciferase, % of control: 114; Outcome: inactive
TRIM14 (GeneID 9830) #1 | total luciferase, z-score: 3.42; total luciferase, % of control: 150; Outcome: active
